No constants are given. Whether binding was seen depends on the method and setting. In cells and extracts the contact can be indirect. Here binding means that the protein was enriched with, or labelled near, the bait; the list need not be complete.
What follows are substances tested against Flag-STING-HA (Stimulator of Interferon Genes) (human) (UniProt Q86WV6) (assay: affinity purification with mass spectrometry).

Protein sequences, listed by entry. Tags and fused reporters are not part of them.
UniProt Q86WV6: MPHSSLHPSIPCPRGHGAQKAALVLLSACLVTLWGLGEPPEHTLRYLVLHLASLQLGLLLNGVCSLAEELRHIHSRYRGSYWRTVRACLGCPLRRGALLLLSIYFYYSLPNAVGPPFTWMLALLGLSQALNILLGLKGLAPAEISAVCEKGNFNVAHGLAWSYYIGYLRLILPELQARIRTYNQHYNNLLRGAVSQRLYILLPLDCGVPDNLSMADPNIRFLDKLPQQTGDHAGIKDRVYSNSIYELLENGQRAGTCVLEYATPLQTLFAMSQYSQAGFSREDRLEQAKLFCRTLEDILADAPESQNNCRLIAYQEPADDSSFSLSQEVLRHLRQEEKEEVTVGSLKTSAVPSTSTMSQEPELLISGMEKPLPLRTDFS
UniProt O96019: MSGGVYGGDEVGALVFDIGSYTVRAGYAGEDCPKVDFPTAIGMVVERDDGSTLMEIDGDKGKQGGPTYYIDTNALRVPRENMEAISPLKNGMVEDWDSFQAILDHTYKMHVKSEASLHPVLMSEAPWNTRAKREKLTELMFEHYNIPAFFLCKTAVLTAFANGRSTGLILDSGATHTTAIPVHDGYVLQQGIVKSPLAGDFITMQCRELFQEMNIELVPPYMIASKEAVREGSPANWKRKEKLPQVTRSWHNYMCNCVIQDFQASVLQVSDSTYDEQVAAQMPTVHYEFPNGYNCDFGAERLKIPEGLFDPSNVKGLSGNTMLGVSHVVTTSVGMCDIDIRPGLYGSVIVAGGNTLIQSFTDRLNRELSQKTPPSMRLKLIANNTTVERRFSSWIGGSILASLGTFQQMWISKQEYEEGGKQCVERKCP
UniProt P12956: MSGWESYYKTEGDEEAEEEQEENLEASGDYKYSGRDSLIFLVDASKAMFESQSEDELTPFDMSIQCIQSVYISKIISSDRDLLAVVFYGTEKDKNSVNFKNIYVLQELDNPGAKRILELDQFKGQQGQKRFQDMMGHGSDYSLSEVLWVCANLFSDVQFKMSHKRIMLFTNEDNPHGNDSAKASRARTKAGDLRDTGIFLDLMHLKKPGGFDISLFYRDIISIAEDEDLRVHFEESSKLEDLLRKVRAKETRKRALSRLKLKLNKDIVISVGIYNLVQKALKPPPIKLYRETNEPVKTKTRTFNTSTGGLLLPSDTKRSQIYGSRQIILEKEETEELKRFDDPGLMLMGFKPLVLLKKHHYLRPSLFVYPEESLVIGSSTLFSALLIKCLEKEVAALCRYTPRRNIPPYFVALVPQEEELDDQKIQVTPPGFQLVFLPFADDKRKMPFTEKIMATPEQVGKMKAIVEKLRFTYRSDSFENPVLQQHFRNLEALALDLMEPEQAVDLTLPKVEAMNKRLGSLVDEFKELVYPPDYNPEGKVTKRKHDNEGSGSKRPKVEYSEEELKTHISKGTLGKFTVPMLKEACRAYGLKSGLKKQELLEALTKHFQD
UniProt P13010: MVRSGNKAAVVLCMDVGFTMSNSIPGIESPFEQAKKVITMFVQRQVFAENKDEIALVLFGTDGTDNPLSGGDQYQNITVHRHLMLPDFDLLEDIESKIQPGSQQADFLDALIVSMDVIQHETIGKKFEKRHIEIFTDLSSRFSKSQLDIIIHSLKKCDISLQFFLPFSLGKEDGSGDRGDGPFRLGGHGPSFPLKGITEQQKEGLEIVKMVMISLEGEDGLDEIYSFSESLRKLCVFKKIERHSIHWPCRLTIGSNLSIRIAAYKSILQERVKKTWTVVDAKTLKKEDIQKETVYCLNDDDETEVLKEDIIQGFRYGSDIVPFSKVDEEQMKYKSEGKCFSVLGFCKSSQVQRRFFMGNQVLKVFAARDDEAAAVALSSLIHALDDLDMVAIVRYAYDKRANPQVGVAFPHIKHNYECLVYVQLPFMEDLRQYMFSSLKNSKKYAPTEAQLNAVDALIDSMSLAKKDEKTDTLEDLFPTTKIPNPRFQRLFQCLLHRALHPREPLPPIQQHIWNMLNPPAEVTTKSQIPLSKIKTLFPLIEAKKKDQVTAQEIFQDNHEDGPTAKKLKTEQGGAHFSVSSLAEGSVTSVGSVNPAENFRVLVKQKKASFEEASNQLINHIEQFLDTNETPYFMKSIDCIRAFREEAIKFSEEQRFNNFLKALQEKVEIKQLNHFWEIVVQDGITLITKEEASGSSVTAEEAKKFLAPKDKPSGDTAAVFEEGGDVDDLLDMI
UniProt Q9Y265: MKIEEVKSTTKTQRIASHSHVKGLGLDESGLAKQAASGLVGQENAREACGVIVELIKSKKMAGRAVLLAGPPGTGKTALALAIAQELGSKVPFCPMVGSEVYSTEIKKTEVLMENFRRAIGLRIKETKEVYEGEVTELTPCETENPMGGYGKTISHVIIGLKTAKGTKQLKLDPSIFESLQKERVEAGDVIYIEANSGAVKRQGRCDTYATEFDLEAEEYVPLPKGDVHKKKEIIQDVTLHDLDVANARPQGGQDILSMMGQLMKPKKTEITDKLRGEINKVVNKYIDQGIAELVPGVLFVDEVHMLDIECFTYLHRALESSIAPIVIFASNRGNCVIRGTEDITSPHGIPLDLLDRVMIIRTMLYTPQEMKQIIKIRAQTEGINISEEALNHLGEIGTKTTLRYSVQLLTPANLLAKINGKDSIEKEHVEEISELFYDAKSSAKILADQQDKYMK
UniProt O60264: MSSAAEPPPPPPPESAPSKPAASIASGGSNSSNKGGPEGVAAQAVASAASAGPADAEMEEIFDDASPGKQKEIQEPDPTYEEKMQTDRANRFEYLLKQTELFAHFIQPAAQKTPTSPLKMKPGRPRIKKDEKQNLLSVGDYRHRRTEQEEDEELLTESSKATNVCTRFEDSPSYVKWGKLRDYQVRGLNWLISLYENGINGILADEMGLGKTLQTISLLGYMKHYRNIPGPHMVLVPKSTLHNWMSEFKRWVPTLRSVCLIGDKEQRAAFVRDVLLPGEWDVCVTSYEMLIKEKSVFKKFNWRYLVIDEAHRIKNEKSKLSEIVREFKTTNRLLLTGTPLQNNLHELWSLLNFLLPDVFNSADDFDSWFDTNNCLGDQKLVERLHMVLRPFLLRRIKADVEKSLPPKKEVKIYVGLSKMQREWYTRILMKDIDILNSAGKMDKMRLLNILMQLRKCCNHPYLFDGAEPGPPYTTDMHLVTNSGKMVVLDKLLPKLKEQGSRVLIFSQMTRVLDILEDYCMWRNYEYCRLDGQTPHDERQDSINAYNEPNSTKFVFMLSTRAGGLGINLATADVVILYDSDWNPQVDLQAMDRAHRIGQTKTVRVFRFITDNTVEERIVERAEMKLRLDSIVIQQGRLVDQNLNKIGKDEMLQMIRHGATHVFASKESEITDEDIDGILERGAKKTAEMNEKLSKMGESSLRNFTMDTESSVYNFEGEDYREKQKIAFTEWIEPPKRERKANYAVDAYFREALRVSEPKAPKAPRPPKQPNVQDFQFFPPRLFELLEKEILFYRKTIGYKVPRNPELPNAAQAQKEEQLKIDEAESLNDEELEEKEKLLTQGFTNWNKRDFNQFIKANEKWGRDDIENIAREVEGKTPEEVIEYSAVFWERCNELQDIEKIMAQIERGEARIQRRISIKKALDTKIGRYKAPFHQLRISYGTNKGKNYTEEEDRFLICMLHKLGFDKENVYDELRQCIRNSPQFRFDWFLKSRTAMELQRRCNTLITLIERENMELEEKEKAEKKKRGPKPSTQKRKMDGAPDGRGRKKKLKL
UniProt Q9UQE7: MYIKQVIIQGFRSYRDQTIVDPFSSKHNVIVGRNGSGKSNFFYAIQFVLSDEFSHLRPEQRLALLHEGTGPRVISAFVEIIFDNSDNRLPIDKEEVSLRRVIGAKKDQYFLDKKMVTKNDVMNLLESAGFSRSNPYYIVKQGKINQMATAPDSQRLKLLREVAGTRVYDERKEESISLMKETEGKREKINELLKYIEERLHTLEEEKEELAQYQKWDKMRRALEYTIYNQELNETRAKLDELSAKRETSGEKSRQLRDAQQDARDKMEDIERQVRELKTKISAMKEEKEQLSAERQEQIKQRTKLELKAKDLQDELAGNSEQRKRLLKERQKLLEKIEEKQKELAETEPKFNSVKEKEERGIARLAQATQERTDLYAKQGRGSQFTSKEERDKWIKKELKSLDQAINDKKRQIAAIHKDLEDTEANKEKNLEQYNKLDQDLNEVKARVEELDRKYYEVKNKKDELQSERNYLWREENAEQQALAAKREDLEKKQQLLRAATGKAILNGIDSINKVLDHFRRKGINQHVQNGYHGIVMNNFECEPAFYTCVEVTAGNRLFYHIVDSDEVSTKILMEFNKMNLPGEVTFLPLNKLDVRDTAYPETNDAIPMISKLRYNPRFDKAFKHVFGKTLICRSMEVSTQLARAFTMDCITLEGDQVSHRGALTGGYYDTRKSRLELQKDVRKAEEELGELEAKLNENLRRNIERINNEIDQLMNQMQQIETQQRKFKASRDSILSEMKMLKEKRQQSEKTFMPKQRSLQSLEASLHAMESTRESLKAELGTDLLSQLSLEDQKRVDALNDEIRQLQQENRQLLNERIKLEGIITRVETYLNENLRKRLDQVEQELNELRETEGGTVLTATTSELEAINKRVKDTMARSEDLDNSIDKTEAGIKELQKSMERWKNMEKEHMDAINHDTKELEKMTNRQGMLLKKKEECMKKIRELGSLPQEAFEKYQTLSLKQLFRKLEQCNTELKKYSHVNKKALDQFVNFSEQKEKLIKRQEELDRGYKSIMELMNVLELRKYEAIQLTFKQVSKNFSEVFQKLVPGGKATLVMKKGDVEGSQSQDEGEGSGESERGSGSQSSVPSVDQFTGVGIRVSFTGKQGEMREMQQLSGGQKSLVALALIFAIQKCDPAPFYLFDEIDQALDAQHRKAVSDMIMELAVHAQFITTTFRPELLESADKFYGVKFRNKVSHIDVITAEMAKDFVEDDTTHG
UniProt Q9Y5B9: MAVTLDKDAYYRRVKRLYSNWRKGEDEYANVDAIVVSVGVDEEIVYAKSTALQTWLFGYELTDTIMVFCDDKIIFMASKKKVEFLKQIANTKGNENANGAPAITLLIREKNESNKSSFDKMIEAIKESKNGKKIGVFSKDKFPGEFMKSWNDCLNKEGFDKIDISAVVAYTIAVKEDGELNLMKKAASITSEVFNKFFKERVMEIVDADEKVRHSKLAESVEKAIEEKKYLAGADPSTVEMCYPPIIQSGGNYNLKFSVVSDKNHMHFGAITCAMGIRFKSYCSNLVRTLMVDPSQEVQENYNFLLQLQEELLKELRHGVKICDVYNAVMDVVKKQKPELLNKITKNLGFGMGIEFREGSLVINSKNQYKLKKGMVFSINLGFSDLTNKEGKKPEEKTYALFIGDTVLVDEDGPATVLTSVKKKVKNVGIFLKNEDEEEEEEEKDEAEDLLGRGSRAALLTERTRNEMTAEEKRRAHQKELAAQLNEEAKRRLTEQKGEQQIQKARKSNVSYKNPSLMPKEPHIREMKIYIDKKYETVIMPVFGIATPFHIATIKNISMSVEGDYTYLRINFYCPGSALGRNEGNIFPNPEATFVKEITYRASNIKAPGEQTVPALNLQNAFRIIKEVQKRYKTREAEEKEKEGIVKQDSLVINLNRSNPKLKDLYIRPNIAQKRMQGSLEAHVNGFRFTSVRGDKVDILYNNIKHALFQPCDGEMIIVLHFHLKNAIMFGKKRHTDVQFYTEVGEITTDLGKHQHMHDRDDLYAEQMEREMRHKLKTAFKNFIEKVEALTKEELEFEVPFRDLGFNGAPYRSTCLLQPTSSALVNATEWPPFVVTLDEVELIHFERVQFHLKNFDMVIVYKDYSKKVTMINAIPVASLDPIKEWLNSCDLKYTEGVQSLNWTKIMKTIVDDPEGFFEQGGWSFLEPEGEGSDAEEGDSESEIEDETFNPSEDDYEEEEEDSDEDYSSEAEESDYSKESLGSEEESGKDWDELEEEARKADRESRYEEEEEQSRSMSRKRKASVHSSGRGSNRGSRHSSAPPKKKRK

binding, binds:
ACTL6A (from UniProt O96019 1-429)
DNA-PK catalytic subunit (from UniProt P78527 1-4128)
Ku70 (from UniProt P12956 1-609)
Ku80 (from UniProt P13010 1-732)
RUVBL1 (from UniProt Q9Y265 1-456)
SMARCA5 (from UniProt O60264 1-1052)
SMC3 (from UniProt Q9UQE7 1-1217)
SUPT16H (from UniProt Q9Y5B9 1-1047)
